Results are given in words; binding and its absence hold for the method and conditions named. In cells and extracts the contact can be indirect. Some binding calls cover weakened binding; strength is not graded here.
T1: BUD31 (human (endogenous in HEYA8)) (UniProt P41223)
T1 sequence: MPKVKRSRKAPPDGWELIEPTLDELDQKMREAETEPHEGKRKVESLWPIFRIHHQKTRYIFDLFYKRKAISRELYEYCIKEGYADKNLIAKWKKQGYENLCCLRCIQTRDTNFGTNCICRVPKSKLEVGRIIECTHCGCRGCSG


Molecular target: T1, BUD31 (human (endogenous in HEYA8))
Experiment: co-IP; co-immunoprecipitation assay (Fig. S4b), detected by western blot; bait, cells and conditions not told in the text shown

| binding | Binder |
| --- | --- |
| binds | U2AF1 (protein, UniProt Q01081 1-240) MAEYLASIFGTEKDKVNCSFYFKIGACRHGDRCSRLHNKPTFSQTIALLNIYRNPQNSSQSADGLRCAVSDVEMQEHYDEFFEEVFTEMEEKYGEVEEMNVCDNLGDHLVGNVYVKFRREEDAEKAVIDLNNRWFNGQPIHAELSPVTDFREACCRQYEMGECTRGGFCNFMHLKPISRELRRELYGRRRKKHRSRSRSRERRSRSRDRGRGGGGGGGGGGGGRERDRRRSRDRERSGRF |
| binds | SART1 (protein, UniProt O43290 1-800) MGSSKKHRGEKEAAGTTAAAGTGGATEQPPRHREHKKHKHRSGGSGGSGGERRKRSRERGGERGSGRRGAEAEARSSTHGRERSQAEPSERRVKREKRDDGYEAAASSKTSSGDASSLSIEETNKLRAKLGLKPLEVNAIKKEAGTKEEPVTADVINPMALRQREELREKLAAAKEKRLLNQKLGKIKTLGEDDPWLDDTAAWIERSRQLQKEKDLAEKRAKLLEEMDQEFGVSTLVEEEFGQRRQDLYSARDLQGLTVEHAIDSFREGETMILTLKDKGVLQEEEDVLVNVNLVDKERAEKNVELRKKKPDYLPYAEDESVDDLAQQKPRSILSKYDEELEGERPHSFRLEQGGTADGLRERELEEIRAKLRLQAQSLSTVGPRLASEYLTPEEMVTFKKTKRRVKKIRKKEKEVVVRADDLLPLGDQTQDGDFGSRLRGRGRRRVSEVEEEKEPVPQPLPSDDTRVENMDISDEEEGGAPPPGSPQVLEEDEAELELQKQLEKGRRLRQLQQLQQLRDSGEKVVEIVKKLESRQRGWEEDEDPERKGAIVFNATSEFCRTLGEIPTYGLAGNREEQEELMDFERDEERSANGGSESDGEENIGWSTVNLDEEKQQQDFSASSTTILDEEPIVNRGLAAALLLCQNKGLLETTVQKVARVKAPNKSLPSAVYCIEDKMAIDDKYSRREEYRGFTQDFKEKDGYKPDVKIEYVDETGRKLTPKEAFRQLSHRFHGKGSGKMKTERRMKKLDEEALLKKMSSSDTPLGTVALLQEKQKAQKTPYIVLSGSGKSMNANTITK |

From article PMC9587234
